Test results published in US20260275292A1, “MATURATION MEDIUM COMPOSITIONS AND METHODS FOR HUMAN HEART ORGANOID MATURATION” (Board of Trustees of Michigan State University, priority 2022, published 2026).
For at least one compound, name, drawing or mass did not settle the structure.

Test system: human heart organoids
Experiment: Immunofluorescence, confocal microscopy and image analysis
Type: cell-based
Conditions: 1 μM, Day 20 to Day 30, EMM2/1 organoids
Procedure: Immunofluorescence. Human heart organoids were transferred from the round bottom ultra-low attachment 96 well plate to 1.5 mL microcentrifuge tubes (Eppendorf) using a cut 200 μL pipette tip (to increase tip bore diameter as to not disturb the organoid). Organoids were fixed in 4% paraformaldehyde (VWR) in PBS for 30 minutes. Following, organoids were washed using PBS-Glycine (1.5 g/L) three times for 5 minutes each. Organoids were then blocked and permeabilized using a solution containing 10% Donkey Normal Serum (Sigma), 0.5% Triton X-100 (Sigma), and 0.5% BSA (Thermo Fisher Scientific) in PBS on a thermal mixer at 300 rpm at 4° C. overnight. Organoids were then washed 3 times using PBS and incubated with primary antibodies (Table 4) within a solution containing 1% Donkey Normal Serum, 0.5% Triton X-100, and 0.5% BSA in PBS (hereafter termed “Antibody Solution”) on a thermal mixer at 300 rpm at 4° C. for 24 hours.
Following, organoids were washed 3 times for 5 minutes each using PBS. Organoids were then incubated with secondary antibodies (Table 4) in Antibody Solution on a thermal mixer at 300 rpm at 4° C. for 24 hours in the dark. Subsequently, organoids were washed 3 times for 5 minutes each using PBS and mounted on glass microscope slides (Fisher Scientific). […]
Confocal Microscopy and Image Analysis. […] Images were analyzed using Fiji. […]

CC1=C(/C=C/C(C)=C/C=C/C(C)=C/C(=O)O)C(C)(C)CCC1 [retinoic acid, Retinoic Acid]
heart organoid patterning (NR2F2, MYL3): does not lead to differences in patterning
